Measurements published in US20260085101A1 (THE UNIVERSITY OF SYDNEY, priority 2022, published 2026).

Experiments:
[1] = general procedure: Fmoc solid-phase peptide synthesis; Rink amide resin (0.49 mmol/g); settings: conjugation step, one disulfide bridge, sequence written open
[2] = general procedure: Fmoc solid-phase peptide synthesis; Rink amide resin; settings: whole synthesis, scale 50 μmol portion cleaved

(CVRKIEIVRKK)2(Peg3)2(EYEK(Palm)EYE)2-C′
conjugation yield [1]: 36%

(CVRKIEIVRKK)2(Peg3)2EYEK(Palm)EYE-C′
conjugation yield [1]: 8%

N′-CVRKIEIVRKK(Peg3)2EYEK(Palm)EYE-C′
crude mass [2]: 53 mg | crude yield [2]: 36%

N′-CVRKIEIVRKK-C′
isolated mass [2]: 22.6 mg | isolated yield [2]: 32%
